These results are taken from patent US20170101474A1 (FORMUREX, published 2017).

No constants are given. Whether binding was seen depends on the method and setting. Some binding calls cover weakened binding; strength is not graded here.

In test [1] the target is HER2 on MDA-MB-361 and ZR-75-1 cells (human) (UniProt P04626). In words: flow cytometry, FITC-labelled peptide 10 µM.
Test [2] has the same target. Put plainly: confocal microscopy, FITC-labelled peptide 10 µM.
Test [3] shares this target. Put plainly: flow cytometry, FITC-labelled peptide 10 µM, MDA-MB-361 and ZR-75-1 cells. A general note: A flow cytometer gives signals particle by particle.
In test [4] the target is T1, Recombinant human EGFR (human, UniProt P00533 25-645, limits assumed).
T1 construct: Immobilized by amine coupling on a carboxymethyl dextran SPR chip; also called epidermal growth factor receptor; surface-immobilized EGFR
In words: SPR, EGFR immobilized (FIG. 8b). In general terms: In SPR one partner is held on a chip, and binding of the other changes the refractive index at the surface.

In test [5] the target is T1, Recombinant human EGFR. Put plainly: SPR, EGFR immobilized on the chip, Pep11 injected at several concentrations.
The target of test [6] is T1, Recombinant human EGFR. Put plainly: SPR, EGFR immobilized.

B1: HER2-PEP20 (peptide)
peptide: QNYIFSGVSKARLGTDYTV
With B1, the binding entry in test [1], in test [2] and in test [3] was “binds” each time.

B2: HER2-PEP7 (peptide)
peptide: VGYDTGLRAPNSVGSTKQ
Turning to B2, the binding result in test [1], in test [2] and in test [3] was “binds” each time.

B3: HER2-PEP11 (peptide)
peptide: QYTFGSNEPARSLGTDNGP
With B3, the binding result in test [1], in test [2] and in test [3] was “binds” throughout.

B4: Pep11 (peptide)
peptide: WSGENGPGFYDYEA
As for B4, the binding result with Recombinant human EGFR [4] and in the test with Recombinant human EGFR [5] was “binds” each time.

B5: HER2-PEP16 (peptide)
peptide: QKGLSGVSNPARNGTEYTV
Turning to B5, the binding entry in test [1], in test [2] and in test [3] was “binds” in each case.

B6: HER2-PEP21 (peptide)
peptide: PGNDTGLSRAPENSGFTYQ
In the case of B6, the binding result in test [1], in test [2] and in test [3] was “binds” each time.

B7: Pep24 (peptide)
peptide: AEYDFYGPGNEGSW
notes: also called No. 24
As for B7, the binding result in the test with Recombinant human EGFR [6] is “binds”.
